Results: paper PMC8194061
No constants are given. Whether binding was seen depends on the method and setting. In cells and extracts the contact can be indirect. Some binding calls cover weakened binding; strength is not graded here.

Protein sequences, listed by entry. Tags and fused reporters are not part of them.
UniProt Q05BC3: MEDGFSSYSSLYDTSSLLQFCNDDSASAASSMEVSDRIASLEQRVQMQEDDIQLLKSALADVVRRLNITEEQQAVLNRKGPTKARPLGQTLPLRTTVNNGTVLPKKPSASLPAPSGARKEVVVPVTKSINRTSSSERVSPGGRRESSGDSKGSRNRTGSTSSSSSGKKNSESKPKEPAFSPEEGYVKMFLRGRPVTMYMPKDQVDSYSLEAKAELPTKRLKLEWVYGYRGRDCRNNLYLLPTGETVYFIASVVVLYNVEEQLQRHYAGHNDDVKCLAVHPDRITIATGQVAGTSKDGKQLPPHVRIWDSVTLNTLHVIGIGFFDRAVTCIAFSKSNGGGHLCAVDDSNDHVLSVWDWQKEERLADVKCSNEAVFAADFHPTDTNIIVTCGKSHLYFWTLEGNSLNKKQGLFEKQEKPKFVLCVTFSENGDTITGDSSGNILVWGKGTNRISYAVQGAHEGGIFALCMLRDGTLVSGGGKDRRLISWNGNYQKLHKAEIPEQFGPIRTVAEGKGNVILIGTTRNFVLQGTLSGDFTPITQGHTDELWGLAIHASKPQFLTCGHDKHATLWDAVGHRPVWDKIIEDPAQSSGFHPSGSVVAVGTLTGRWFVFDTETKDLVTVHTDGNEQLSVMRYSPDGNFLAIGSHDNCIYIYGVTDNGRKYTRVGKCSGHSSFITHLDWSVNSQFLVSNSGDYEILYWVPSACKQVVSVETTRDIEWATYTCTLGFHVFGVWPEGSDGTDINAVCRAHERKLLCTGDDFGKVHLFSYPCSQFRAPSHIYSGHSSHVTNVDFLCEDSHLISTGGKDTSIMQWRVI
UniProt O35685: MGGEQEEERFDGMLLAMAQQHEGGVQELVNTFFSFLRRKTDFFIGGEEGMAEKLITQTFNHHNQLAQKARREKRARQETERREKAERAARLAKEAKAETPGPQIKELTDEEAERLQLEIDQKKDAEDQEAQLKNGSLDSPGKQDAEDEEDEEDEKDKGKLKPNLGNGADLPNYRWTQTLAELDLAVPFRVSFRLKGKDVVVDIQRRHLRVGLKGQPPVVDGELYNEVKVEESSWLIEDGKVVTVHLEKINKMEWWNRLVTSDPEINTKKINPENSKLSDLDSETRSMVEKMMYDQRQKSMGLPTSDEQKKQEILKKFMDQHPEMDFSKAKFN
UniProt Q9Y266: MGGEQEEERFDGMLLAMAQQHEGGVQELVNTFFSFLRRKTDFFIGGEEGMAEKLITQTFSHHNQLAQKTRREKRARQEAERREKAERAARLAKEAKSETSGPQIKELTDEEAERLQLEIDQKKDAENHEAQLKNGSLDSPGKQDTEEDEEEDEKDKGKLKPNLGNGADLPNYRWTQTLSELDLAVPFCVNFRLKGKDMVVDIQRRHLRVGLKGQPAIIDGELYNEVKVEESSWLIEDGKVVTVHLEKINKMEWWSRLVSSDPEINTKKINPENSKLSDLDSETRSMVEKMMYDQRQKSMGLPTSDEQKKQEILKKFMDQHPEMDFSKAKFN

Tests used:
[1] = biological target: EML1-3DDK fusion protein (echinoderm microtubule associated protein like 1, mouse) (mouse) (UniProt Q05BC3); experiment: co-IP; HEK293T cells transfected at once with the plasmids of 3DDK-tagged EML1 and mKate-tagged NUDC; co-IP and blot with anti-DDK and anti-mKate antibodies
[2] = biological target: EML1-3DDK fusion protein (echinoderm microtubule associated protein like 1, mouse) (mouse) (UniProt Q05BC3); experiment: co-IP; EML1-IP product from HEK293 cells expressing EML1-3DDK, blotted for NUDC and EML4

binding [1] | binding [2] | Substance
binds |  | NUDC-mKate fusion protein (nuclear distribution gene C, mouse) (from UniProt O35685 1-332)
 | binds | NUDC (nuclear distribution C), found in the EML1-IP product (from UniProt Q9Y266 1-331)
